# Reference: the supplement of paper PMC11409438
# Counter-ions that a name gives are not always drawn. The list shows a part of the results. Single values are uncertain, as repeats are few or missing.
# Columns and labels:
# [1] = tested on: Caenorhabditis elegans ST65 (ncIs13[ajm-1::GFP]); assay: 'Larvae/adult' ratio (MetaXpress pharynx counts; minimum value 1, so it appears to include adults; growth inhibition read-out); settings: 10 µM; exposure time: 4-5 days from L1 at 20°C
# [2] = tested on: Caenorhabditis elegans ST65 (ncIs13[ajm-1::GFP]); assay: vulvae per adult worm (MAPK/ERK-dependent vulval induction, MetaXpress) (vulvae/adult); higher = more vulval induction (less MAPK/ERK inhibition); settings: 10 µM; exposure time: 4-5 days from L1 at 20°C
SMILES,'Larvae/adult' ratio [1],vulvae per adult worm [2]
CC/C(=C(\c1ccccc1)c1ccc(OCCN(C)C)cc1)c1ccccc1 [Tamoxifen],1.76,0.978
CCNC(=O)CCC/C=C\C[C@@H]1[C@@H](/C=C/[C@@H](O)CCc2ccccc2)[C@H](O)C[C@@H]1O [Bimatoprost],1.57,0.893
COc1cc2ncnc(Nc3ccc(F)c(Cl)c3)c2cc1NC(=O)/C=C/CN1CCCCC1,2,0.884
CNc1nc(Nc2cn(C(C)(C)C#N)nc2C)ncc1C(F)(F)F,2.56,1.03
CCC(C)n1ncn(-c2ccc(N3CCN(c4ccc(OCC5COC(Cn6cncn6)(c6ccc(Cl)cc6Cl)O5)cc4)CC3)cc2)c1=O (stereo unspecified) [Itraconazole],2.5,0.889
COc1cc([C@@H]2c3cc4c(cc3[C@@H](O[C@@H]3O[C@@H]5CO[C@@H](C)O[C@H]5[C@H](O)[C@H]3O)[C@H]3COC(=O)[C@H]23)OCO4)cc(OC)c1O [Etoposide],2.77,1.09
O=C(Nc1cccc(Nc2ncc(Br)c(NCCc3cnc[nH]3)n2)c1)N1CCCC1,1.54,0.708
CN1CCN(c2nc(C3=C(c4c[nH]c5ccccc45)C(=O)NC3=O)c3ccccc3n2)CC1 [Sotrastaurin],2.02,0.943
O=C(O)CCCCC(CCSCc1ccccc1)SCc1ccccc1 (stereo unspecified),2.48,0.904
Oc1nc(-c2ccc(C(F)(F)F)cc2)nc2c1CSCC2,1.51,0.843
COc1cc(Nc2ncc(F)c(Nc3ccc4c(n3)N(COP(=O)(O)O)C(=O)C(C)(C)O4)n2)cc(OC)c1OC [Fostamatinib (R788)],2.45,1.34
O=C(O)c1ccc(-c2c[nH]c3ncc(-c4ccccc4)cc23)cc1C1CCCC1,1.95,1
COc1cc2nccc(Oc3ccc(NC(=O)NC4CC4)c(Cl)c3)c2cc1C(N)=O [Lenvatinib (E7080)],3.44,0.56
CNS(=O)(=O)Nc1nccc(Cc2c(C)c3ccc(Oc4ncccn4)cc3oc2=O)c1F,1.36,0
COc1cc(C)c(/C=C/C(C)=C/C=C/C(C)=C/C(=O)O)c(C)c1C [Acitretin],2.24,0.586
O=c1[nH]c(C2CCCN2)nc2c1oc1ccc(Cl)cc12 (stereo unspecified),1.98,0.867
Cc1cc(-c2nc(-c3ccc(OC(F)(F)F)cc3)no2)nn1Cc1ccnc(N2CCN(C3CC3)CC2)c1,1.87,0.522
O=C(CCNC(=O)c1ccc(OC(F)(F)F)cc1)N[C@@H]1CCCc2ccccc21,2.2,1.07
CC[C@H](C)C(=O)O[C@H]1C[C@@H](C)C=C2C=C[C@H](C)[C@H](CC[C@@H]3C[C@@H](O)CC(=O)O3)[C@H]21 [Lovastatin],2.23,1
"O=C(c1ccc(F)c(F)c1Nc1ccc(I)cc1F)N1CC(O)([C@@H]2CCCCN2)C1 [Cobimetinib (GDC-0973, RG7420)]",2.94,0.943
C=C(c1ccc(C(=O)O)cc1)c1cc2c(cc1C)C(C)(C)CCC2(C)C [Bexarotene],1.75,1.08
CS(=O)(=O)N1CCN(Cc2cc3nc(-c4cccc5[nH]ncc45)nc(N4CCOCC4)c3s2)CC1 [Pictilisib (GDC-0941)],1.83,0.979

SMILES,'Larvae/adult' ratio [1],vulvae per adult worm [2]
Nc1cc(F)ccc1NC(=O)/C=C/c1cnn(C/C=C/c2ccccc2)c1,1.57,0.955
Cn1cc(-c2cnn3c(N)c(Br)c([C@@H]4CCCNC4)nc23)cn1,2.52,0.976
N#CCNC(=O)c1ccc(-c2ccnc(Nc3ccc(N4CCOCC4)cc3)n2)cc1 [Momelotinib (CYT387)],2.21,0.792
CNC(=O)c1ccc(N2C(=S)N(c3ccc(C#N)c(C(F)(F)F)c3)C(=O)C2(C)C)cc1F [Enzalutamide (MDV3100)],3.89,0.556
N#Cc1ccc2ncnc(NCCc3ccccc3)c2c1 [Senexin A],3.29,1.43
CCCC(CCC)C(=O)O [Valproic acid],2.7,1
"C=CC(=O)Nc1cccc(Nc2nc(Nc3ccc(N4CCN(C(C)=O)CC4)cc3OC)ncc2C(F)(F)F)c1 [Rociletinib (CO-1686, AVL-301)]",1.6,0.771
Cc1ccc(C(=O)Nc2ccc(Oc3cc4cnn(C)c4cc3-c3cn[nH]c3)c(F)c2)c(=O)n1-c1ccc(F)cc1,3.06,0.806
O=C(c1ccc(C(=O)N2CCC(N3CCCC3)CC2)c(Nc2ccccc2)c1)N1CCC(N2CCCC2)CC1,2.62,1.33
Nc1nc2[nH]cc(CCc3ccc(C(=O)N[C@@H](CCC(=O)O)C(=O)O)cc3)c2c(=O)[nH]1 [Pemetrexed],1.63,0.947
COc1c(C)cnc(Cn2cnc3c(Cl)nc(N)nc32)c1C,1.77,0.614
CN(C)C(=O)c1ccc(S(=O)(=O)c2ccc(NC(=O)[C@@](C)(O)C(F)(F)F)c(Cl)c2)cc1,2.56,1
CC[C@@]1(O)C(=O)OCc2c1cc1n(c2=O)Cc2cc3c(CN(C)C)c(O)ccc3nc2-1 [Topotecan HCl],1.91,0.953
Cc1cnc(Nc2ccc(OCCN3CCCC3)cc2)nc1Nc1cccc(S(=O)(=O)NC(C)(C)C)c1,1.77,0.745
COc1cccc(-c2ccc(NC(=O)C3=C(C(=O)O)CCC3)c(F)c2)c1 [Vidofludimus],2.76,0.824
CC[C@@H]1C(=O)N(C)c2cnc(Nc3ccc(C(=O)N[C@H]4CC[C@H](N5CCN(CC6CC6)CC5)CC4)cc3OC)nc2N1C(C)C [Volasertib (BI 6727)],2.32,0.894
CC(C)(C)NC(=O)[C@H]1CC[C@H]2[C@@H]3CC[C@H]4NC(=O)C=C[C@]4(C)[C@H]3CC[C@]12C [Finasteride],2.3,1.05
CCOC(=O)CCNc1cc(N2CCc3ccccc3CC2)nc(-c2ccccn2)n1,2.95,0.286
Cc1cc(Nc2cc(CN3CCOCC3)c3nc(C)c(Cc4ccc(Cl)cc4F)n3n2)n[nH]1,2.23,0.962
FC(F)(F)c1ccc(/C=C/c2nc(COc3ccc(CCCCn4ccnn4)cc3)co2)cc1 [Mubritinib (TAK 165)],2.45,0.935
S=c1[nH]cnc2nc[nH]c12 [Mercaptopurine (6-MP)],1.57,0.776

# One compound at a time (already shown).
# O=C(Nc1cccc(Nc2ncc(Br)c(NCCc3cnc[nH]3)n2)c1)N1CCCC1 as listed: 'Larvae/adult' ratio [1]: 1.54; vulvae per adult worm [2]: 0.708
# COc1cccc(-c2ccc(NC(=O)C3=C(C(=O)O)CCC3)c(F)c2)c1 [Vidofludimus] as listed: 'Larvae/adult' ratio [1]: 2.76; vulvae per adult worm [2]: 0.824
